This test concerns the target UniProt P07900 and related entries. Nature of the test: NP40-soluble protein abundance relative to vehicle (solubility fold change) (ratio); higher = more soluble protein in presence of ATP. The gist of the method: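 Eight concentrations, 0.1 to 10 mM, were tested on Jurkat crude lysate for 10 min at room temperature and then 3 min at 37 °C, in three independent experiments. The lysate was solubilised with 0.8% NP40 and benzonase, ultracentrifuged, and the supernatant TMT-labelled for LC-MS/MS. Each value is the fold change against the detergent-processed vehicle in its own replicate, from vsn-normalised intensities.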

± gives the standard deviation of the averaged measurements. The entries are a selection whose mix differs from that of the whole data set.

Regarding `Nc1ncnc2c1ncn2[C@@H]1O[C@H](COP(=O)(O)OP(=O)(O)OP(=O)(O)O)[C@@H](O)[C@H]1O` [adenosine triphosphate], the NP40-soluble protein abundance runs as follows: (concentration: 1mM) 1 ± 0.018; (concentration: 2mM) 0.994 ± 0.011; (concentration: 4mM) 0.965 ± 0.024; (concentration: 6mM) 0.988 ± 0.027; (concentration: 8mM) 0.952 ± 0.017; (concentration: 10mM) 0.952 ± 0.051.

(Values after the supplement of paper PMC6411743.)
